Results are given in words; binding and its absence hold for the method and conditions named. In cells and extracts the contact can be indirect. Binding can be weak; no strength is given.
Biological target: T1, ELP1 subunit of the Elongator complex, endogenous (human (endogenous in HEK293T)) (UniProt O95163)
T1 sequence: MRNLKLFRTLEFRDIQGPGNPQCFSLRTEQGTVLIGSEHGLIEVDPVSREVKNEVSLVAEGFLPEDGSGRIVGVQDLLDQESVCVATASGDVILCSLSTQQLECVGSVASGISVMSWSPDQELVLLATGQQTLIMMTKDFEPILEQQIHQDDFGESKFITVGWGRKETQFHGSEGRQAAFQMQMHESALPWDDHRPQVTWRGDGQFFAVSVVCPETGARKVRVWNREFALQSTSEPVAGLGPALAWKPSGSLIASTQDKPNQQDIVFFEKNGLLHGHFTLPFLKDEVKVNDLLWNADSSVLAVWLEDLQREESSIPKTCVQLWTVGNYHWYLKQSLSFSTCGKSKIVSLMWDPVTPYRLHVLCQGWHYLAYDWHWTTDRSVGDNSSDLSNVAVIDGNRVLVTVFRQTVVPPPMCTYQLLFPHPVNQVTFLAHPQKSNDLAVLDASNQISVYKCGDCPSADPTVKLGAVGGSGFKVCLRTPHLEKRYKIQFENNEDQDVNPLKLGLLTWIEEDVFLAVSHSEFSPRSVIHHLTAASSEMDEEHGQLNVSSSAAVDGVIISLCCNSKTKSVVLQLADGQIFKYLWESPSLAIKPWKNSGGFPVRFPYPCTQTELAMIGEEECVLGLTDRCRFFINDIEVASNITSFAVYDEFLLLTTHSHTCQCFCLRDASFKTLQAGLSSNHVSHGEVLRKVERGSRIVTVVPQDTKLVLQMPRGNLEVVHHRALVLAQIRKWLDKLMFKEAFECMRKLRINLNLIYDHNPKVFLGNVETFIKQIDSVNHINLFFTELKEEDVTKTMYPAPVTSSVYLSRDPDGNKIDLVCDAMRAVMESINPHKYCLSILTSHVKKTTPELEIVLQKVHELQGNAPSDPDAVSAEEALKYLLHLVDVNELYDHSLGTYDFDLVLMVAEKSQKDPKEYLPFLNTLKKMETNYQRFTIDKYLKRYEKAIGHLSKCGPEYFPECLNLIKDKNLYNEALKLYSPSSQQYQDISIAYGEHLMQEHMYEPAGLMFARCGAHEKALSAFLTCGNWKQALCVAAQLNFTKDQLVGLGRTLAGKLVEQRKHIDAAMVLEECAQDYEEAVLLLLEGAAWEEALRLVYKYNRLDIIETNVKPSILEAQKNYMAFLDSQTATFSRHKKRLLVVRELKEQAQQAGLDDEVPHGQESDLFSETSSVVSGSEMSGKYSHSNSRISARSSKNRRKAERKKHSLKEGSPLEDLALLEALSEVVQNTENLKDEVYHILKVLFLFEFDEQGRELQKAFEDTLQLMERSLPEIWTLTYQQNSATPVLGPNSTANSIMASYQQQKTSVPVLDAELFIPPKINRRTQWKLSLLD
Assay: co-IP; endogenous proteins; 0.5 mg HEK293T whole cell extract with 2 µg anti-AAG or anti-ELP1 antibody overnight at 4 °C, Protein-A Dynabeads, immunoblot; cells untreated or MMS treated; extracts with or without DNaseI, MNase, RNaseI; WT and ELP1-/- cells

Protein sequences, listed by entry. Tags and fused reporters are not part of them. Lines headed by an entry give the natural chain unless they say otherwise; changes in a name come on top.
UniProt P29372: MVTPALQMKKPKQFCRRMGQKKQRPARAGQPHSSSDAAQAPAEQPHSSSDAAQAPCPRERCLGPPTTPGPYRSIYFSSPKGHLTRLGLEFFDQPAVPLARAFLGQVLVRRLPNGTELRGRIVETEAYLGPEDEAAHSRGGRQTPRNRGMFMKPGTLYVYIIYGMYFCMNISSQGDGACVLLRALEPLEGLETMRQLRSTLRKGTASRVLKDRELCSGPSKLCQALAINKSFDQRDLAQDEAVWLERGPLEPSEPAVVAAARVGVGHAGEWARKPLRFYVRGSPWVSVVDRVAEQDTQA

binding: binds
Substance: Alkyladenine DNA glycosylase (AAG), endogenous (from UniProt P29372)

Reference: PMC6884549, “Alkyladenine DNA glycosylase associates with transcription elongation to coordinate DNA repair with gene expression” (Nature Communications, 2019)
